# In the supplement of paper PMC12067093, “Discovery and optimisation of a covalent ligand for TRIM25 and its application to targeted protein ubiquitination” (Chemical Science, 2025):
# The chains behind the UniProt entries cited, without tags or fusion partners. Where a name states a change or a piece, a line headed by the entry shows the natural chain unless it says otherwise.
# UniProt Q99832: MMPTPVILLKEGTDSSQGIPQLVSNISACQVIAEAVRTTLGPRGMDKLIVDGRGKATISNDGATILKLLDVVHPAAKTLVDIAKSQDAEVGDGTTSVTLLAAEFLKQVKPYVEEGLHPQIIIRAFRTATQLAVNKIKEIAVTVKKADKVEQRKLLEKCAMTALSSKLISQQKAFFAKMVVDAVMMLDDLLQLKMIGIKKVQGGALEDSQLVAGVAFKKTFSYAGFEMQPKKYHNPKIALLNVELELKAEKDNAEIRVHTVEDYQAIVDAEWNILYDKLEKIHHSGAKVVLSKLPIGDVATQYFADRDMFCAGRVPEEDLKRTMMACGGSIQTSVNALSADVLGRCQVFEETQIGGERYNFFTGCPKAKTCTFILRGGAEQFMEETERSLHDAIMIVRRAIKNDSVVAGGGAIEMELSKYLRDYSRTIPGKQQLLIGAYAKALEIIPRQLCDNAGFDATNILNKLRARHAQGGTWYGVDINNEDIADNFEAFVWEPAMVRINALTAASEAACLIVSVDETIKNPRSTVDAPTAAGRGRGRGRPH
# UniProt O95319: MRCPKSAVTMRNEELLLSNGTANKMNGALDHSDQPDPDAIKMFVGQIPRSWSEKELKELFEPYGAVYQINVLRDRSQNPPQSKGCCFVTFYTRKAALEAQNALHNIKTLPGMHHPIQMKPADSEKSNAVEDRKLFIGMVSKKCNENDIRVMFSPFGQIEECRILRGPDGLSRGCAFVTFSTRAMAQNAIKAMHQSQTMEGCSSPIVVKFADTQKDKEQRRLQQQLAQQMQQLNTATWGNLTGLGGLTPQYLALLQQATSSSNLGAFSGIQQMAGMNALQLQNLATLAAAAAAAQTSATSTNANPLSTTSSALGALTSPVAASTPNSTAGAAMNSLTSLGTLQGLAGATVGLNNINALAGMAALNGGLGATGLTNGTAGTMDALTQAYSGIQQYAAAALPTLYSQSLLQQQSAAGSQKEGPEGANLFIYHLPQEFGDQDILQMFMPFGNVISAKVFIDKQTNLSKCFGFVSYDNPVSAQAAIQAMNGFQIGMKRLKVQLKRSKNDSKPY
# UniProt Q00534, whole entry, looked up: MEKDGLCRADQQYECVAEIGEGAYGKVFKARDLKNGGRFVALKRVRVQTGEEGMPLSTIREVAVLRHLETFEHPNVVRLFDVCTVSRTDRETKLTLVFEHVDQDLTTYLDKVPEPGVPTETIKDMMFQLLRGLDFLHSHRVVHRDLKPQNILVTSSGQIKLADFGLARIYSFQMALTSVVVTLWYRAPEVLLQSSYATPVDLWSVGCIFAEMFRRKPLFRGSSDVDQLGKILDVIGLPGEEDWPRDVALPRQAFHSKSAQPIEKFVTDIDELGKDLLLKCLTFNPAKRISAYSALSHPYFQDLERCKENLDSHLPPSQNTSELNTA
# UniProt P48643, whole entry, looked up: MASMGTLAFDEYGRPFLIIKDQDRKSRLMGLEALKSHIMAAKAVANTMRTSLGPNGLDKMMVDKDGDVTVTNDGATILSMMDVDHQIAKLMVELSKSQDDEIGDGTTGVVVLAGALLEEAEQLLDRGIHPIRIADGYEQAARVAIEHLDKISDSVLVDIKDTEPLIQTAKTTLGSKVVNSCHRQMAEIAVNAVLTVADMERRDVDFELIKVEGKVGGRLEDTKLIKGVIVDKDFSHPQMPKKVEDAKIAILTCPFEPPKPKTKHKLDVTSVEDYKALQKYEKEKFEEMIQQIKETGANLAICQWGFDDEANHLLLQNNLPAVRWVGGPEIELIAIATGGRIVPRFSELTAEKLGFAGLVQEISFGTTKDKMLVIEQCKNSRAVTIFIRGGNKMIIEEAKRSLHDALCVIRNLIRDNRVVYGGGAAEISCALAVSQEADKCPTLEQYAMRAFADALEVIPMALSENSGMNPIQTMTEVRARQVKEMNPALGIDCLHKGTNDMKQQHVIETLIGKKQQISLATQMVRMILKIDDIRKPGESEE
# UniProt P25942, whole entry, looked up: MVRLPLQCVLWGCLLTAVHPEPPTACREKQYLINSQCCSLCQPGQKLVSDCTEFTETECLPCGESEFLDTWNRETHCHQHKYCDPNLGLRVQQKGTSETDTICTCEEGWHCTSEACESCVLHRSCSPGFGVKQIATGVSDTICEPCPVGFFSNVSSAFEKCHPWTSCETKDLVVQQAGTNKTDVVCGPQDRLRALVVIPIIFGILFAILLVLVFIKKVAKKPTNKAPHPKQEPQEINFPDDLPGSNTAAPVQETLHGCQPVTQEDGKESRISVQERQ
# UniProt P49454: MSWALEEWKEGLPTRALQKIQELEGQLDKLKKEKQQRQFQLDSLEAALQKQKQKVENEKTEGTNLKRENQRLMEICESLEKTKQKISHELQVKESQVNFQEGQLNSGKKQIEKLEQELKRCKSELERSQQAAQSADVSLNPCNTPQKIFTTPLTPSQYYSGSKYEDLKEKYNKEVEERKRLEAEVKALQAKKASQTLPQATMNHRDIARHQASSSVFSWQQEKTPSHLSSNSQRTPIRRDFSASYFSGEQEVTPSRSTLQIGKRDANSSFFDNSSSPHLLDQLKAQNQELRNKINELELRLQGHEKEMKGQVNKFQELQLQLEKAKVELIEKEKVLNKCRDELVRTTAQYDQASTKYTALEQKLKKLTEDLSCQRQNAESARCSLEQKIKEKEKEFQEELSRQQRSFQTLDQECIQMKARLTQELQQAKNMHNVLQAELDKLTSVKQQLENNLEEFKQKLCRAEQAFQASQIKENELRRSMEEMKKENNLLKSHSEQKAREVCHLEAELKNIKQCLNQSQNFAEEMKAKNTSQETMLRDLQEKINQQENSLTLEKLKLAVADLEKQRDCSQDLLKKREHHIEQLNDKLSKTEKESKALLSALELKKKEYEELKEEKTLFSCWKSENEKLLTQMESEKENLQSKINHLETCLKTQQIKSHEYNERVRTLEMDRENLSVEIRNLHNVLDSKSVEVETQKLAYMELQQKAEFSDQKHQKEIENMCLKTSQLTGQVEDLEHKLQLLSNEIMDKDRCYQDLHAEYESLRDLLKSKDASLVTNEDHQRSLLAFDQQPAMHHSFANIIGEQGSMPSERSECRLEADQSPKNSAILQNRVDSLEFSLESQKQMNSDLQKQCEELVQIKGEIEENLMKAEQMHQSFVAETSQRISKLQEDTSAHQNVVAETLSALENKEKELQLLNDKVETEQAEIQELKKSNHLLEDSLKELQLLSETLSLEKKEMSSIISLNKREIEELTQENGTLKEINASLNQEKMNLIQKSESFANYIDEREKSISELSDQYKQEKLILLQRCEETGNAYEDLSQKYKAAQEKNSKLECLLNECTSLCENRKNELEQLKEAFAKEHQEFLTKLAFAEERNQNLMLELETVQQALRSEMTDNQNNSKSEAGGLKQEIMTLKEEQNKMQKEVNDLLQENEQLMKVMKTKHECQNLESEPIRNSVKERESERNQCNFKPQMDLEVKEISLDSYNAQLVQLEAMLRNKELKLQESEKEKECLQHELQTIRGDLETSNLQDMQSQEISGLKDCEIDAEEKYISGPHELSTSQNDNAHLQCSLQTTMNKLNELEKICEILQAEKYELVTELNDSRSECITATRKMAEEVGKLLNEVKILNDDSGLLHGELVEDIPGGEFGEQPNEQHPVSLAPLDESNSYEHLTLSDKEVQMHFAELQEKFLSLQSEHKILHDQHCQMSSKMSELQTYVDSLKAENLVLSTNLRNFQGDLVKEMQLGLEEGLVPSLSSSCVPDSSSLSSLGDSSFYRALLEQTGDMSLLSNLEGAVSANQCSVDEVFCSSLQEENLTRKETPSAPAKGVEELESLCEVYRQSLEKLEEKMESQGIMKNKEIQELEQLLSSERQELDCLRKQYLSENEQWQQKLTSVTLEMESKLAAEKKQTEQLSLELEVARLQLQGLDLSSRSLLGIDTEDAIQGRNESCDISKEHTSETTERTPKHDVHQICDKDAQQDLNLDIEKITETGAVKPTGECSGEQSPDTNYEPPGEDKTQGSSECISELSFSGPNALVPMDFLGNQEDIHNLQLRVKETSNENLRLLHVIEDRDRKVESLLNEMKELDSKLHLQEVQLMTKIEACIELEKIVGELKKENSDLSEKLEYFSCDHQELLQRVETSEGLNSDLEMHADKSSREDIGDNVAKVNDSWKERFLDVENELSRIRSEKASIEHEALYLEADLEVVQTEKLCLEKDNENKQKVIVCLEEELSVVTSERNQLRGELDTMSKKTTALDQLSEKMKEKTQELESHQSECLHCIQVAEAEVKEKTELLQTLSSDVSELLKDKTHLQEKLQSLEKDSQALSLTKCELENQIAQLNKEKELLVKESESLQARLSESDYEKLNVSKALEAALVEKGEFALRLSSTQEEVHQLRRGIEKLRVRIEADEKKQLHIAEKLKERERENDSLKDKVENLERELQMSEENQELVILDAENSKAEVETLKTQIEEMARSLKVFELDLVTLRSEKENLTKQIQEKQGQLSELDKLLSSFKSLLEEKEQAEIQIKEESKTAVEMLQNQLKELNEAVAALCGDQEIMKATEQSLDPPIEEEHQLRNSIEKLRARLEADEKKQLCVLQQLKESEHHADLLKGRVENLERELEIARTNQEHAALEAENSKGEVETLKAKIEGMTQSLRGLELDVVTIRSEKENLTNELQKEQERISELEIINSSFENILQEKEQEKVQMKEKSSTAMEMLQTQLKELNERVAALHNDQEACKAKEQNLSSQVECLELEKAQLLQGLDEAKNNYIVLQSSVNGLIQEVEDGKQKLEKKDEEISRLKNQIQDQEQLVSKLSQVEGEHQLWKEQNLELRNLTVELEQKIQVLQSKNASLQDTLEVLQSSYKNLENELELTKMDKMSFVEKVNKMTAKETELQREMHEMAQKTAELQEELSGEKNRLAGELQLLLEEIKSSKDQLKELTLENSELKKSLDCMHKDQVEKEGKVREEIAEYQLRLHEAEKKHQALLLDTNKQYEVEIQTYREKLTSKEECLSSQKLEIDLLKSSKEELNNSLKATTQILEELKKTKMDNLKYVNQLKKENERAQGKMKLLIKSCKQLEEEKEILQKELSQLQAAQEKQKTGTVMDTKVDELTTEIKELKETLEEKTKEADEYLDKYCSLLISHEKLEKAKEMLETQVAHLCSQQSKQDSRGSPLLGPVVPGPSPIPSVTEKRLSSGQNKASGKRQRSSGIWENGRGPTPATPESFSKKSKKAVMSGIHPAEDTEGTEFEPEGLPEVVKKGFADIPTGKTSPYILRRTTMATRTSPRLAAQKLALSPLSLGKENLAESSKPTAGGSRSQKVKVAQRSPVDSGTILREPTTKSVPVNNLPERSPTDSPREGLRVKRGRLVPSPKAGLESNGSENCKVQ
# UniProt P28907, whole entry, looked up: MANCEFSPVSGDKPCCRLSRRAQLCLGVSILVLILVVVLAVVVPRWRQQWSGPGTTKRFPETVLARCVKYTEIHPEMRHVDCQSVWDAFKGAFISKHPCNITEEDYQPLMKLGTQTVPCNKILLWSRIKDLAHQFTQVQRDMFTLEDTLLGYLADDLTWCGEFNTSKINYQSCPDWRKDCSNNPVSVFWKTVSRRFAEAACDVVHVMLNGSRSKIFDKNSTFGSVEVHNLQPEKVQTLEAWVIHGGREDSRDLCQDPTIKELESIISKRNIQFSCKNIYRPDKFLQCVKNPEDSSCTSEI
# Some of the results follow.
# Compound: Cc1cc(ccc1-c1ccccc1)C(=O)N1CCCN(CC1)C(=O)CCl [compound 10]
# Experiment: probe-labelled cysteine peptide fold change vs DMSO (competition) (log2 fold change); higher = less target engagement (more negative = stronger competition)
# Details: THP-1, incubation time: 4 h
# 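Note: competitive profiling in live THP-1 cells: cysteine peptides tagged with an iodoacetamide desthiobiotin (IA-DTB) probe, intensity after compound treatment relative to DMSO-treated cells.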
Target,probe-labelled cysteine peptide fold change (10 µM),probe-labelled cysteine peptide fold change (50 µM)
CENPP_Q6IPU0_22_ACEDPPAPWEEK (UniProt Q6IPU0),-0.0252,-0.0362
CENPJ_Q9HC77_634_TNPADPISHCNR (UniProt Q9HC77),-0.114,0.0384
CCT7_Q99832_326_RTMMACGGSIQTSVNALSADVLGR (UniProt Q99832),0.0835,0.162
CELF2_O95319_85+86_GCCFVTFYTR (UniProt O95319),-0.178,-0.561
CDPF1_Q6NVV7_7_ASHVECR (UniProt Q6NVV7),-0.0893,-0.337
CD46_P15529_157_GSVAIWSGKPPICEK (UniProt P15529),-0.205,-0.0545
CDK2_P24941_177_APEILLGCK (UniProt P24941),-0.146,-0.17
CENPC_Q03188_472_NMEEHEEMGNDCVSK (UniProt Q03188),-0.0503,0.352
CDK8_P49336_25_VEDLFEYEGCK (UniProt P49336),0.0232,-0.0925
CEP250_Q9BV73_1740_EVECQQEHIHELQELK (UniProt Q9BV73),-0.0757,-0.0757
CEP350_Q5VT06_2412_DSQSCR (UniProt Q5VT06),-0.469,-0.521
CDK6_Q00534_280_CLTFNPAK (UniProt Q00534),0.199,-0.0193
CEP250_Q9BV73_110_CESLAEVNTQLR (UniProt Q9BV73),0.0275,-0.31
CCT5_P48643_493_EMNPALGIDCLHK (UniProt P48643),-0.0731,-0.155
CD81_P60033_175_NNLCPSGSNIISNLFK (UniProt P60033),-0.0474,0.0727
CD40_P25942_119_GTSETDTICTCEEGWHCTSEACESCVLHR (UniProt P25942),-0.531,0.0643
CENPF_P49454_2834_EECLSSQK (UniProt P49454),0.222,0.272
CDC27_P30260_115_SHDDIVTEFGDSACFTLSLLGHVYCK (UniProt P30260),0.151,0.0274
CD38_P28907_275_NIQFSCK (UniProt P28907),-0.246,0.0472
CEP128_Q6ZU80_433_EIQNHFDTCEAER (UniProt Q6ZU80),0.0384,0.225

# Complete entries, quoted from the list. Values in the order: probe-labelled cysteine peptide fold change (10 µM) | probe-labelled cysteine peptide fold change (50 µM)
# CELF2_O95319_85+86_GCCFVTFYTR (UniProt O95319) reads -0.178 | -0.561
# CCT5_P48643_493_EMNPALGIDCLHK (UniProt P48643) reads -0.0731 | -0.155

# Further entries

Target,probe-labelled cysteine peptide fold change (10 µM),probe-labelled cysteine peptide fold change (50 µM)
CEP350_Q5VT06_413_VAQLSSTECR (UniProt Q5VT06),0.0126,0.528
CDK5RAP3_Q96JB5_150_KEEECQAGAAEMR (UniProt Q96JB5),-0.0706,-0.0264
CENPF_P49454_2961_YCSLLISHEK (UniProt P49454),0.225,0.291
CEP350_Q5VT06_211_FLNDRPAIDALQNSECLIR (UniProt Q5VT06),-0.364,-0.546
CELF2_O95319_143_CNENDIR (UniProt O95319),0.0358,0.224
CDCA4_Q9BXL8_10_CVGHEEDVEGALAGLK (UniProt Q9BXL8),-0.0781,0.0716
CCT7_Q99832_450_QLCDNAGFDATNILNK (UniProt Q99832),0.0314,0.0421
CDK6_Q00534_15_ADQQYECVAEIGEGAYGK (UniProt Q00534),-0.178,0.0606
CENPC_Q03188_612_CSLSEPLESDEADLAK (UniProt Q03188),-0.164,0.0777
CENPU_Q71F23_239_AIGSDTSDIVHIWCPEGMK (UniProt Q71F23),-0.159,-0.255
CENPF_P49454_752_CYQDLHAEYESLRDLLK (UniProt P49454),0.0879,0.147
CEP250_Q9BV73_630_VGLNQQLLQLEEENQSVCSR (UniProt Q9BV73),0.113,0.175
CENPF_P49454_2776_SLDCMHK (UniProt P49454),0.233,0.324
CENPF_P49454_1947_LEYFSCDHQELLQR (UniProt P49454),0.249,0.198
CD109_Q6YHK3_1302_ENKDDLNHVDLNVCTSFSGPGR (UniProt Q6YHK3),0.108,-0.288
CD40_P25942_186_TDVVCGPQDR (UniProt P25942),-0.371,0.303
CDC16_Q13042_163_EALKLDVYCFEAFDLLTSHHMLTAQEEK (UniProt Q13042),0.122,-0.172
CELF1_Q92879_150_GCAFVTFTTR (UniProt Q92879),-0.0102,0.178
CEP128_Q6ZU80_839_EIDAACK (UniProt Q6ZU80),0.0721,-0.000557
